# Assay results reported in the supplement of paper PMC7666118.
# The chains behind the UniProt entries cited, without tags or fusion partners. Where a name states a change or a piece, a line headed by the entry shows the natural chain unless it says otherwise.
# UniProt P35637: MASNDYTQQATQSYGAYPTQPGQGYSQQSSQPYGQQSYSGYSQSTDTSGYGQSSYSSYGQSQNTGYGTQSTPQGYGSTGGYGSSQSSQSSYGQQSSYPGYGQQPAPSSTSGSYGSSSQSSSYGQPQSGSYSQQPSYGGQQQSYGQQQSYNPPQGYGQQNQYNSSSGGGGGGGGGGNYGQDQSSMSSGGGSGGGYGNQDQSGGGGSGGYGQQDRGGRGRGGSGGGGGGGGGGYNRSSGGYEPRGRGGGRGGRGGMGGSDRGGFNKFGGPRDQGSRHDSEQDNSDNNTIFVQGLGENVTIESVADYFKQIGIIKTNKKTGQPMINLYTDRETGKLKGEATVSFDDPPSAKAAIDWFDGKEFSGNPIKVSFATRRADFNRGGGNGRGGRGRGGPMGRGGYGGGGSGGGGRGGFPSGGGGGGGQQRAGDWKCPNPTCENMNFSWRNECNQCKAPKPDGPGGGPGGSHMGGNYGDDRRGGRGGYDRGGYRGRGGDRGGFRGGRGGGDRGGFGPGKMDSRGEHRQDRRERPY
# UniProt Q9Y285: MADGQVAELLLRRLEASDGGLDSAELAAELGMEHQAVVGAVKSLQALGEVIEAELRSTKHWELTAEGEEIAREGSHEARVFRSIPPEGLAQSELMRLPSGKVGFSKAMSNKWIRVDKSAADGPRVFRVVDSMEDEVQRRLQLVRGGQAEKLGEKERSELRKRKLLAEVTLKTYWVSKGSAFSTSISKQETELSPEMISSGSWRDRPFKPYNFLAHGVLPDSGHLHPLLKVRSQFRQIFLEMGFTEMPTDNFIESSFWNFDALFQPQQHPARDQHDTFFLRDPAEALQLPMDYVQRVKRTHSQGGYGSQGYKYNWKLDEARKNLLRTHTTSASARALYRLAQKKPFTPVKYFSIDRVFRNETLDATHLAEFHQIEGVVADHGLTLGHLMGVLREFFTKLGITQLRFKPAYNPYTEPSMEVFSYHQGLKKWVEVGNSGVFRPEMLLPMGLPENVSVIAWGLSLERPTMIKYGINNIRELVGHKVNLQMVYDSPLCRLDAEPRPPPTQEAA
# UniProt P51570: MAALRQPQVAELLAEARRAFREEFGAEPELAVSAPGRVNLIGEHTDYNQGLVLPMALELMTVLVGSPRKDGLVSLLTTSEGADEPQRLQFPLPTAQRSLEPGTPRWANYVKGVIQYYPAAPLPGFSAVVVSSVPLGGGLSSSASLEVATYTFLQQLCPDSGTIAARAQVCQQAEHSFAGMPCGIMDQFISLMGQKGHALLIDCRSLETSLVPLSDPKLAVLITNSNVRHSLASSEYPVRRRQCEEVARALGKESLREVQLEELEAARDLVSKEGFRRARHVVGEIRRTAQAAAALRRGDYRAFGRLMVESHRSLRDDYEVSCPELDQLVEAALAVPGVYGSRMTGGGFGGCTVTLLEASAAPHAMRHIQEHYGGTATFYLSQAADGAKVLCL
# UniProt P63096, whole entry: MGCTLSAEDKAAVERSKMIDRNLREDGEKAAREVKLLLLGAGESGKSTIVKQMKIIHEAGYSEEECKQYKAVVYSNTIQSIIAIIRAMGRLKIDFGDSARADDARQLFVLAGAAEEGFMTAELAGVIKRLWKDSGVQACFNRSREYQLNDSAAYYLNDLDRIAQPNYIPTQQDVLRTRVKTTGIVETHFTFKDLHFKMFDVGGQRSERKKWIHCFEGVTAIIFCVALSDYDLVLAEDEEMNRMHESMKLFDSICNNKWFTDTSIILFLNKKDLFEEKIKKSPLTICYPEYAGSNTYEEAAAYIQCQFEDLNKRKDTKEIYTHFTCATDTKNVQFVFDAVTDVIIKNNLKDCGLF
# UniProt Q92947: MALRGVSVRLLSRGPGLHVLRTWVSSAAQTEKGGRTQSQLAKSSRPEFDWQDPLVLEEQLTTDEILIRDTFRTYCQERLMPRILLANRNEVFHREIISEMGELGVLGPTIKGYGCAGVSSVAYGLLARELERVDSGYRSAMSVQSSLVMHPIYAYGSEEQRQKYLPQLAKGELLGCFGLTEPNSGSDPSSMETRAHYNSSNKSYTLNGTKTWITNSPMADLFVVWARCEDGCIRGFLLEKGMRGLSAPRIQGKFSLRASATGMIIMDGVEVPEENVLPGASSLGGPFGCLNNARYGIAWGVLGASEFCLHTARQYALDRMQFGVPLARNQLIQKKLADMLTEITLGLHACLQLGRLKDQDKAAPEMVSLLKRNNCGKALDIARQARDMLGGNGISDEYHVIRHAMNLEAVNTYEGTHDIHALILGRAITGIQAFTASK
# UniProt Q9UJ14: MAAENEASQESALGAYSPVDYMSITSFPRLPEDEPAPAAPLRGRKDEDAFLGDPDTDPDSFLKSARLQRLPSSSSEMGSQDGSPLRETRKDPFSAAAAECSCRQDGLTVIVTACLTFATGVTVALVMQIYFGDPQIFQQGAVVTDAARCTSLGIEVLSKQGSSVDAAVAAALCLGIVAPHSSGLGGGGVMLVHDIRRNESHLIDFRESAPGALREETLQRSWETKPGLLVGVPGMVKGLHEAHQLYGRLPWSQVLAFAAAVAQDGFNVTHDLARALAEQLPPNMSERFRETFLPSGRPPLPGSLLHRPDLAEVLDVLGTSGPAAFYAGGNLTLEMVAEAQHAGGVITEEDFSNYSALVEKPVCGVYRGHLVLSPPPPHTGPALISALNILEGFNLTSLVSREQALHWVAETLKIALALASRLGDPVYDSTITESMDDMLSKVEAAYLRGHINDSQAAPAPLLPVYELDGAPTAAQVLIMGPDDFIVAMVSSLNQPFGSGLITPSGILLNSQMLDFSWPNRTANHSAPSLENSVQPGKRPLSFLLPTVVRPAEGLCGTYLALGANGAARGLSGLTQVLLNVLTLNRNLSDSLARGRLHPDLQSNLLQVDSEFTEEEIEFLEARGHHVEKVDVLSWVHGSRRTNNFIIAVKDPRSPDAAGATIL
# UniProt Q8WXD5: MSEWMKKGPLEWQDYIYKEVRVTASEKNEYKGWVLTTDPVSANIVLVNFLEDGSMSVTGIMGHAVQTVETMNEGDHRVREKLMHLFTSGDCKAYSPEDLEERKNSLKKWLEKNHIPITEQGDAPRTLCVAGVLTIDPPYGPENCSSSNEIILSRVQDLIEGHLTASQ
# UniProt Q8NEZ5: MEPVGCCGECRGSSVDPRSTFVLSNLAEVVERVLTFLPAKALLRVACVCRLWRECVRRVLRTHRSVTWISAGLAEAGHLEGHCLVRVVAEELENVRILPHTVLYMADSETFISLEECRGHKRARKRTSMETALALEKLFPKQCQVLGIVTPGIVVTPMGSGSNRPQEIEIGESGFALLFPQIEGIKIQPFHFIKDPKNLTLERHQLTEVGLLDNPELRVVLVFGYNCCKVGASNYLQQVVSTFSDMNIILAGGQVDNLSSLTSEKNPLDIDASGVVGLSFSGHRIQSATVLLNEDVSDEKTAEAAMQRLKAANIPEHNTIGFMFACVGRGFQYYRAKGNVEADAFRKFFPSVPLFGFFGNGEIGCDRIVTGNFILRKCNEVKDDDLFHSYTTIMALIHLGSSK
# UniProt Q9UK99: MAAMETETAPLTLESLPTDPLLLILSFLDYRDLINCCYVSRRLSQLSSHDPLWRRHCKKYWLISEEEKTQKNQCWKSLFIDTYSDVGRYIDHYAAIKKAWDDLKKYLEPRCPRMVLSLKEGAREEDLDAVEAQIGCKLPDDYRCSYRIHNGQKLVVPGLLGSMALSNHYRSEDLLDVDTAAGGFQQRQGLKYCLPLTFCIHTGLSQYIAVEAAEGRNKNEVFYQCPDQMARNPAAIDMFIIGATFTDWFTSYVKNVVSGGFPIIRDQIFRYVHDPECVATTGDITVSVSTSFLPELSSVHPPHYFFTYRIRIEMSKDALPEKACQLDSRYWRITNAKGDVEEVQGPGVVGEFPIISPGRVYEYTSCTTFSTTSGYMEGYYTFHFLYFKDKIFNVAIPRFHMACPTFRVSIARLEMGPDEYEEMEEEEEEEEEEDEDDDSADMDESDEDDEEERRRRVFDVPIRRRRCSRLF
# UniProt Q5T1M5: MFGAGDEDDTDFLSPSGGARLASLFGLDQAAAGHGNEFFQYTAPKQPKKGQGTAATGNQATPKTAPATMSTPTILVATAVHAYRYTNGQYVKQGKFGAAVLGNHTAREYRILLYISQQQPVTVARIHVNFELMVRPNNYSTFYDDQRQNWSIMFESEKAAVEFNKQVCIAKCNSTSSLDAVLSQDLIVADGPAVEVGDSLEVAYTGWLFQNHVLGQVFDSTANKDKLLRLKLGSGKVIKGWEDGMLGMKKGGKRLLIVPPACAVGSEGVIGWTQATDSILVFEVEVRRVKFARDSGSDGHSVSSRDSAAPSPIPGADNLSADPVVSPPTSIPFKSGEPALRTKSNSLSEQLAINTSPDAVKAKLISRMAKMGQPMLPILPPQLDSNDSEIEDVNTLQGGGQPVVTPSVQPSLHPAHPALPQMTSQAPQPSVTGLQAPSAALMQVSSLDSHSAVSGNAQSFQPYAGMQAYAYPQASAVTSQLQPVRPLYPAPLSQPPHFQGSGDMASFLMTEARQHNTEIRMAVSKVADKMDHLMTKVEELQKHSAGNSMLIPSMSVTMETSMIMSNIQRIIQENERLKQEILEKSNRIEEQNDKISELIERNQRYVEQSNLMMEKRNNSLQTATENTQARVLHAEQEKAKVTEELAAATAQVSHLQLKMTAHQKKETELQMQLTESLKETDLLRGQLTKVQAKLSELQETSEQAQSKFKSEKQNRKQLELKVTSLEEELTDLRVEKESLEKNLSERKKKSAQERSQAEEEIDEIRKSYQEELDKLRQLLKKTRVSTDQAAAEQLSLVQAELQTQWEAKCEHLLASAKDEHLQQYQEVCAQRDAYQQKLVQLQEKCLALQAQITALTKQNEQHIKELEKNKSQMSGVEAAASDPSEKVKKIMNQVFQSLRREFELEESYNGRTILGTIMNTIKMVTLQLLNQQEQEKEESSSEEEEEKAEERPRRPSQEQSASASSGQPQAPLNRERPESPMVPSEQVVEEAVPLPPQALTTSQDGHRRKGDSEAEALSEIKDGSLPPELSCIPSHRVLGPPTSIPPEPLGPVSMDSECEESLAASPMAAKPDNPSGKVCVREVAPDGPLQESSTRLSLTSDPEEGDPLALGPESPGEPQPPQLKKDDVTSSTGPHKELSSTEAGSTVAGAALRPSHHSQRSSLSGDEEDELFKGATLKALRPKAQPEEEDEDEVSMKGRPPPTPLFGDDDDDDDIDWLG
# UniProt Q9BXW9: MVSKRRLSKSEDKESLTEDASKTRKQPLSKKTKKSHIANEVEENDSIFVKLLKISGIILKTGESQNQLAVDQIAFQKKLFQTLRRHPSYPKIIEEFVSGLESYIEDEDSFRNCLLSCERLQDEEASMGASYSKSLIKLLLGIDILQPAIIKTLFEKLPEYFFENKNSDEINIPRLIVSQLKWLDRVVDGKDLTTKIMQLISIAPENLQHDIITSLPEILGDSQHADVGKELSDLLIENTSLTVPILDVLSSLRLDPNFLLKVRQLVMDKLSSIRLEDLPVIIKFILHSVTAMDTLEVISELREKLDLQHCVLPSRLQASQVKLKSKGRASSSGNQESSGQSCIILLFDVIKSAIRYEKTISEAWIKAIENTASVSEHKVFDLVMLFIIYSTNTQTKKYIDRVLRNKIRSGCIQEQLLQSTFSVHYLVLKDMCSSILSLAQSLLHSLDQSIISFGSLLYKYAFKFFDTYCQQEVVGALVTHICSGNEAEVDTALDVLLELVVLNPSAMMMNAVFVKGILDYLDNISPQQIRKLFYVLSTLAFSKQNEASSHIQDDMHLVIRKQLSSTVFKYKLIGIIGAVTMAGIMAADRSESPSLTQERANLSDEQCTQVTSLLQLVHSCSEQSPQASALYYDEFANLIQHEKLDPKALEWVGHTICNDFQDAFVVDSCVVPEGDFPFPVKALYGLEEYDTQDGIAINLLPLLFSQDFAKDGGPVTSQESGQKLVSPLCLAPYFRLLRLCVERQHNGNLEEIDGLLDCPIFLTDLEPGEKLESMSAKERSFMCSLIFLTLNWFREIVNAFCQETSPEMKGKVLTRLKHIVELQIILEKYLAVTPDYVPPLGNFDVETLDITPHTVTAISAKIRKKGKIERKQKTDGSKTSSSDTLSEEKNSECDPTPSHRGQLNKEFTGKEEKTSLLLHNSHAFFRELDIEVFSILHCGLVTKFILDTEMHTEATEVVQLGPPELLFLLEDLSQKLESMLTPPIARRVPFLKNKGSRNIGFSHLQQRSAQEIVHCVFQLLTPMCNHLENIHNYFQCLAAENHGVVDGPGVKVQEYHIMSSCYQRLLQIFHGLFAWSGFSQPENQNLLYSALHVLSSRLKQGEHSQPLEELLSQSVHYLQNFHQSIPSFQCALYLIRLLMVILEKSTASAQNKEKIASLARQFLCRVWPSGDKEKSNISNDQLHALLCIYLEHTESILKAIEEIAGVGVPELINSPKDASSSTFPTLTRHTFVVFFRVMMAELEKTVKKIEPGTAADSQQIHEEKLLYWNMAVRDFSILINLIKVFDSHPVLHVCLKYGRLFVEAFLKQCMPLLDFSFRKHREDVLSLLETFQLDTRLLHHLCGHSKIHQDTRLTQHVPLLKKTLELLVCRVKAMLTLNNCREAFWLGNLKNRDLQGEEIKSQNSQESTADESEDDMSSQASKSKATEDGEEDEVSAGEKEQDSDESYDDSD
# The other results are listed elsewhere or left out.
# Compound: COc1ccc(Cn2ccc3cc(C)c(C(=O)NO)cc32)cc1
# Experiment: dose-dependent thermal stabilisation call (2D-TPP, DLPTP, 10% FDR) (binary (1 = stabilised)); higher = stabilised by the compound
# Details: system: HL-60 intact cells; concentration range 0.04-10 µM
# Description: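 2D thermal proteome profiling in intact HL-60 cells treated with BRD-3811 (0, 0.04, 0.29, 2, 10 uM) for 90 min at 37 C, then heated 3 min at one of 12 temperatures (42-63.9 C). Soluble protein was quantified by TMT10 MS. The value is the DLPTP call of the paper: dose-dependent thermal stabilisation over all temperatures at 10% FDR (F-test of a dose-response against a flat model); one experiment, one call per tested protein.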
row,Target,dose-dependent thermal stabilisation call
1,FUS (UniProt P35637),inactive: 0
2,FARSA (UniProt Q9Y285),inactive: 0
3,GALK1 (UniProt P51570),inactive: 0
4,FLJ43093,inactive: 0
5,FAM50A (UniProt Q14320),inactive: 0
6,GNB1 (UniProt P62873),inactive: 0
7,GNAI1 (UniProt P63096),inactive: 0
8,GALNT6 (UniProt Q8NCL4),inactive: 0
9,GCDH (UniProt Q92947),inactive: 0
10,GGT7 (UniProt Q9UJ14),inactive: 0
11,FASTKD2 (UniProt Q9NYY8),inactive: 0
12,GARNL1 (UniProt Q6GYQ0),inactive: 0
13,FLG2 (UniProt Q5D862),inactive: 0
14,FAS (UniProt P25445),inactive: 0
15,FHOD1 (UniProt Q9Y613),inactive: 0
16,FBXO6 (UniProt Q9NRD1),inactive: 0
17,GEMIN6 (UniProt Q8WXD5),inactive: 0
18,FMNL1 (UniProt O95466),inactive: 0
19,GBP2 (UniProt P32456),inactive: 0
20,FLJ22167,inactive: 0
21,FBXO22 (UniProt Q8NEZ5),inactive: 0
22,FBXO3 (UniProt Q9UK99),inactive: 0
23,FTSJD1 (UniProt Q8IYT2),inactive: 0
24,GGT5 (UniProt P36269),inactive: 0
25,FGFR1OP2 (UniProt Q9NVK5),inactive: 0
26,FBXW2 (UniProt Q9UKT8),inactive: 0
27,FKBP15 (UniProt Q5T1M5),inactive: 0
28,FANCD2 (UniProt Q9BXW9),inactive: 0

# Reprinted at random: two records from the list
row,Target,dose-dependent thermal stabilisation call
8,GALNT6 (UniProt Q8NCL4),inactive: 0
1,FUS (UniProt P35637),inactive: 0
